The text below walks through data of publication PMC5116814, “Potent, Reversible, and Specific Chemical Inhibitors of Eukaryotic Ribosome Biogenesis” (Cell, 2016).

This test addresses T1, Nsa1-5FLAG (S. pombe) (UniProt O94698).
T1 sequence: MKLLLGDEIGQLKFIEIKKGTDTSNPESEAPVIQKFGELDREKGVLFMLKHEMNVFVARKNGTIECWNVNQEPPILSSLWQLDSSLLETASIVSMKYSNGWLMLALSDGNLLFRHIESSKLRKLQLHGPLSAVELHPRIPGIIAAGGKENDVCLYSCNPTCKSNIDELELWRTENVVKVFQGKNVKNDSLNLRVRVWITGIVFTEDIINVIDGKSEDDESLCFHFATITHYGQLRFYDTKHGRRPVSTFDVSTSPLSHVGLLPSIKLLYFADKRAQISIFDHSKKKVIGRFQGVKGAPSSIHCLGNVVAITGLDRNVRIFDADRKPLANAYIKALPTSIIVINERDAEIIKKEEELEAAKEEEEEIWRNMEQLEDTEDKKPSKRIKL
Kind of test: co-IP; Rix1-5FLAG or Nsa1-5FLAG immunoprecipitated with anti-FLAG M2 antibody and Dynabeads Protein G, 1 hr at 4°C, from S. pombe whole cell extracts; western blot with anti-HA, anti-FLAG or anti-GFP; wild-type, mdn1-ts26 (6 hr at 36°C) or mdn1-F1093L cells, untreated or treated with Rbin-1 (1 uM) for the indicated times. On the technique in general: A western blot detects proteins with antibodies after separation by electrophoresis.

No constants are given. Whether binding was seen depends on the method and setting. In cells and extracts the contact can be indirect. Binding can be weak; no strength is given. Sequences can lack the tags named with a protein.

Rix7-GFP (S. pombe): the binding entry was “binds”.
